No constants are given. Whether binding was seen depends on the method and setting. Some binding calls cover weakened binding; strength is not graded here.
Key:
[1] = target: PD-1 (antigen of the Octet affinity measurements of Example 9 and of the affinities quoted afterwards) (UniProt Q15116); experiment: Octet
[2] = target: PD-1 (antigen of the Octet affinity measurements of Example 9 and of the affinities quoted afterwards) (UniProt Q15116); experiment: Octet (legend of FIG. 66)

Amino acid sequences for entries named in this document (tags omitted). Residues count along the entry.
UniProt Q15116, residues 25-167: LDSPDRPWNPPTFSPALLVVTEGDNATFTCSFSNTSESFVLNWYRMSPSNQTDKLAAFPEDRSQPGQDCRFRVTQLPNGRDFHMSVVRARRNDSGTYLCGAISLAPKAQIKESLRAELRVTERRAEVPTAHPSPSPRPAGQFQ

binding [1]: binds
binding [2]: binds
B1: mAb C[PD-1] H1.19_L1 (antibody, name in Kabat numbering, V domains shown)
VH: EVQLVESGGGLVQPGGSLRLSCAASGFTFSSLGMHWVRQAPGKGLEWVSYISSGSSIIYYADSVKGRFTISRDNAKNSLYLQMNSLRAEDTAVYYCARGGRLVWSPDYWGQGTLVTVSS
VL: DIVMTQSPDSLAVSLGERATINCKSSQSLLNSGNQKNYLTWYQQKPGQPPKLLIYWASTRESGVPDRFTGSGSGTDFTLTISSLQAEDVAVYYCQNDYSYPFTFGSGTKLEIK
